Data taken from US20080199464A1, “Combination Therapy with Angiogenesis Inhibitors” (Genentech, Inc., priority 2007, published 2008).
For at least one compound, name, drawing or mass did not settle the structure.

Key:
[1] = test system: LS174T human colon carcinoma xenografts; assay: Growth inhibition of established LS174T human colon carcinoma xenografts; type: in vivo, athymic nude mice; conditions: Day 18 of separate 25-day study; low sunitinib dose 25 mg/kg daily, alone or with B20-4.1
Procedure: (§1) Volume was calculated using the formula:
(§2) Tumor Volume(mm^3)=(W2×l)/2
(§3) Tumors were measured twice weekly using calipers. […] Treatment outcome was based on tumor growth inhibition (TGI).
(§4) Animals were monitored for regression responses.

[2] = test system: H1299 human non-small cell lung carcinoma (NSCLC) xenografts; assay: Growth inhibition of established H1299 human NSCLC xenografts; type: in vivo, athymic nude mice; conditions: longer term study; sunitinib 50 mg/kg daily, alone or with B20-4.1; n=10 per group
Procedure: as §1, §2, §3, §4

[3] = test system: Lewis lung carcinoma tumors; conditions: Osusky et al., Angiogenesis 7:225-33 (2004); cited from earlier work

For `CCN(CC)CCNC(=O)c1c(C)[nH]c(/C=C2\C(=O)Nc3ccc(F)cc32)c1C` [sunitinib, N-[2-(diethylamino)ethyl]-5-[(Z)-(5-fluoro-1,2-dihydro-2-oxo-3H-indol-3-ylidine)methyl]-2,4-dimethyl-1H-pyrrole-3-carboxamde], the “TGI (tumor growth inhibition)” value [1] is listed as “no TGI”, the “partial regressions (number of animals)” value [2] is listed as “one” and the development of metastases [3] is listed as “attenuated the development of metastases”. For the same compound, the “progression of tumor growth” value [3] was “slows the progression of tumor growth” and the “regression of primary tumors” value [3] was “did not cause regression of primary tumors”.
